Measured data: PubChem BioAssay AID1224830 (NIAID, 2016)
Here is one part, drawn at random, of about 18,000 reagents tested. About 2,900 of them (16%) count as active. 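Calls are made per well; low scores hint the gene aids the LPS response, high scores that it dampens it.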 Repeated entries: four replicate wells of each siRNA pool.

Test: 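Genes whose knock-down alters the TNF-alpha reporter response to LPS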 (primary screen)
Cell system: human THP-1 monocytic leukaemia cells, TNF dual-luciferase reporter clone, PMA-differentiated to macrophage-like cells
Knock-down reagent: siRNA pool against human genes, 50 nM
Time to read-out: LPS for 4 h, given about 3 days after siRNA transfection
Challenge: bacterial LPS (TLR4 ligand), 10 ng/ml
Read-out: 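TNF firefly reporter luminescence divided by renilla, normalised to the plate median, then turned into a robust z-score for each replicate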
Direction: TNF reporter robust z-score: higher = stronger TNF reporter response to LPS
Rule for the call: 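Each well counts as active if its z-score is over 2.8 or under -1.5; controls are left without a call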

The first 4 entries, to show the layout:
no.	gene knocked down	TNF reporter robust z-score	Outcome
1	HACD4 (3-hydroxyacyl-CoA dehydratase 4)	-0.16	inactive
2	HACD4 (3-hydroxyacyl-CoA dehydratase 4)	-0.82	inactive
3	HACD4 (3-hydroxyacyl-CoA dehydratase 4)	-0.59	inactive
4	HACD4 (3-hydroxyacyl-CoA dehydratase 4)	0.38	inactive

The listing, repeating the preview:
no.	gene knocked down	TNF reporter robust z-score	Outcome
1	HACD4 (3-hydroxyacyl-CoA dehydratase 4)	-0.16	inactive
2	HACD4 (3-hydroxyacyl-CoA dehydratase 4)	-0.82	inactive
3	HACD4 (3-hydroxyacyl-CoA dehydratase 4)	-0.59	inactive
4	HACD4 (3-hydroxyacyl-CoA dehydratase 4)	0.38	inactive
5	H3C7 (H3 clustered histone 7)	-0.88	inactive
6	H3C7 (H3 clustered histone 7)	-0.6	inactive
7	H3C7 (H3 clustered histone 7)	-1.05	inactive
8	H3C7 (H3 clustered histone 7)	-1.25	inactive
9	WDR55 (WD repeat domain 55)	-1.19	inactive
10	WDR55 (WD repeat domain 55)	-0.52	inactive
11	WDR55 (WD repeat domain 55)	-0.41	inactive
12	WDR55 (WD repeat domain 55)	-0.51	inactive
13	ERCC3 (ERCC excision repair 3, TFIIH core complex helicase subunit)	1.76	inactive
14	ERCC3 (ERCC excision repair 3, TFIIH core complex helicase subunit)	2.58	inactive
15	ERCC3 (ERCC excision repair 3, TFIIH core complex helicase subunit)	1.39	inactive
16	ERCC3 (ERCC excision repair 3, TFIIH core complex helicase subunit)	1.14	inactive
17	RBM11 (RNA binding motif protein 11)	-0.23	inactive
18	RBM11 (RNA binding motif protein 11)	0.5	inactive
19	RBM11 (RNA binding motif protein 11)	-0.52	inactive
20	RBM11 (RNA binding motif protein 11)	0.85	inactive
21	CHRM4 (cholinergic receptor muscarinic 4)	1.42	inactive
22	CHRM4 (cholinergic receptor muscarinic 4)	0.21	inactive
23	CHRM4 (cholinergic receptor muscarinic 4)	0.45	inactive
24	CHRM4 (cholinergic receptor muscarinic 4)	0.48	inactive
25	CORO2A (coronin 2A)	1.73	inactive
26	CORO2A (coronin 2A)	2.39	inactive
27	CORO2A (coronin 2A)	-0.75	inactive
28	CORO2A (coronin 2A)	2.91	active
29	IFI30 (IFI30 lysosomal thiol reductase)	-0.2	inactive
30	IFI30 (IFI30 lysosomal thiol reductase)	-0.8	inactive
31	IFI30 (IFI30 lysosomal thiol reductase)	-0.56	inactive
32	IFI30 (IFI30 lysosomal thiol reductase)	-0.91	inactive
33	IL19 (interleukin 19)	-1.06	inactive
34	IL19 (interleukin 19)	-0.75	inactive
35	IL19 (interleukin 19)	-0.62	inactive
36	IL19 (interleukin 19)	-0.96	inactive
37	RNASE8 (ribonuclease A family member 8)	-0.34	inactive
38	RNASE8 (ribonuclease A family member 8)	-0.87	inactive
39	RNASE8 (ribonuclease A family member 8)	0.12	inactive
40	RNASE8 (ribonuclease A family member 8)	-0.9	inactive
41	DNAAF5 (dynein axonemal assembly factor 5)	-0.03	inactive
42	DNAAF5 (dynein axonemal assembly factor 5)	1.33	inactive
43	DNAAF5 (dynein axonemal assembly factor 5)	0.36	inactive
44	DNAAF5 (dynein axonemal assembly factor 5)	1.37	inactive
45	UTP15 (UTP15 small subunit processome component)	0.11	inactive
46	UTP15 (UTP15 small subunit processome component)	0.2	inactive
47	UTP15 (UTP15 small subunit processome component)	1.33	inactive
48	UTP15 (UTP15 small subunit processome component)	0.82	inactive
49	METAP1D (methionyl aminopeptidase type 1D, mitochondrial)	0.81	inactive
50	METAP1D (methionyl aminopeptidase type 1D, mitochondrial)	1.37	inactive
51	METAP1D (methionyl aminopeptidase type 1D, mitochondrial)	0.88	inactive
52	METAP1D (methionyl aminopeptidase type 1D, mitochondrial)	0.34	inactive
53	SPDL1 (spindle apparatus coiled-coil protein 1)	0.92	inactive
54	SPDL1 (spindle apparatus coiled-coil protein 1)	1.94	inactive
55	SPDL1 (spindle apparatus coiled-coil protein 1)	-0.55	inactive
56	SPDL1 (spindle apparatus coiled-coil protein 1)	1.11	inactive
57	CYREN (cell cycle regulator of NHEJ)	1.01	inactive
58	CYREN (cell cycle regulator of NHEJ)	0.87	inactive
59	CYREN (cell cycle regulator of NHEJ)	0.64	inactive
60	CYREN (cell cycle regulator of NHEJ)	1.56	inactive
61	FOXC1 (forkhead box C1)	1.11	inactive
62	FOXC1 (forkhead box C1)	2.82	active
63	FOXC1 (forkhead box C1)	0.33	inactive
64	FOXC1 (forkhead box C1)	2.59	inactive
65	LNPK (lunapark, ER junction formation factor)	0.29	inactive
66	LNPK (lunapark, ER junction formation factor)	-0.96	inactive
67	LNPK (lunapark, ER junction formation factor)	-0.12	inactive
68	LNPK (lunapark, ER junction formation factor)	0.83	inactive
69	TP53TG3 (TP53 target 3)	-1.43	inactive
70	TP53TG3 (TP53 target 3)	-0.56	inactive
71	TP53TG3 (TP53 target 3)	-0.7	inactive
72	TP53TG3 (TP53 target 3)	-0.64	inactive
73	PTGR2 (prostaglandin reductase 2)	-1.48	inactive
74	PTGR2 (prostaglandin reductase 2)	-0.96	inactive
75	PTGR2 (prostaglandin reductase 2)	-1.24	inactive
76	PTGR2 (prostaglandin reductase 2)	-0.24	inactive
